Assay results: the supplement of paper PMC12067093, “Discovery and optimisation of a covalent ligand for TRIM25 and its application to targeted protein ubiquitination” (Chemical Science, 2025)
This is one part of the list.

Chains of the proteins cited; added tags and fusions are not shown. Lines headed by an entry give the natural chain unless they say otherwise; changes in a name come on top.
UniProt Q9NXB0: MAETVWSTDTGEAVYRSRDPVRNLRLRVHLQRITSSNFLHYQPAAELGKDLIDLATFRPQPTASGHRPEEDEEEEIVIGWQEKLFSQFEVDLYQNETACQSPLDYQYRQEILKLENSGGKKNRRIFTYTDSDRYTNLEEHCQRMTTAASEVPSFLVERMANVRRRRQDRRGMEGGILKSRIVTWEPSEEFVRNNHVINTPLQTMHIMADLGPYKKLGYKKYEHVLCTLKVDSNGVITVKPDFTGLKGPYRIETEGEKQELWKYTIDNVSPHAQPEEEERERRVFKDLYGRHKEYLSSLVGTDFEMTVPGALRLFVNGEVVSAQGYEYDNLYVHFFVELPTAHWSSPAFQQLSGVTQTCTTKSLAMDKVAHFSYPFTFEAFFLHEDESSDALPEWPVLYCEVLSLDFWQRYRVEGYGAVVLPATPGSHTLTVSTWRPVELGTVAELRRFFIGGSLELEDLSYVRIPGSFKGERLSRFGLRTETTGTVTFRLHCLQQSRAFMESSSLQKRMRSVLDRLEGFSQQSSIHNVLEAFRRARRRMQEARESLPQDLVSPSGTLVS
UniProt Q9NQG6: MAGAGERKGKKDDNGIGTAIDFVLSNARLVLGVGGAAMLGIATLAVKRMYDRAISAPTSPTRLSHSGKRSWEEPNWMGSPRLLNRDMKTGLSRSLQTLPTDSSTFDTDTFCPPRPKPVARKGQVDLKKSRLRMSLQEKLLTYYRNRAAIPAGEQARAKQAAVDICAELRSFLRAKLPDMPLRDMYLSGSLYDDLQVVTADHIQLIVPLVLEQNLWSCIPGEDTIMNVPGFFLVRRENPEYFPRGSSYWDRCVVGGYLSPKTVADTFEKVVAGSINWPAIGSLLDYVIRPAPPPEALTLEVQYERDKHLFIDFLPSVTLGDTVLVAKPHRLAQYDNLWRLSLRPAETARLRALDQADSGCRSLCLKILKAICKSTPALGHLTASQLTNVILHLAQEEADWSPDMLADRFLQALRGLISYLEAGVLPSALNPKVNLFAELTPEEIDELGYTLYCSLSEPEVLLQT
UniProt Q9UBG0: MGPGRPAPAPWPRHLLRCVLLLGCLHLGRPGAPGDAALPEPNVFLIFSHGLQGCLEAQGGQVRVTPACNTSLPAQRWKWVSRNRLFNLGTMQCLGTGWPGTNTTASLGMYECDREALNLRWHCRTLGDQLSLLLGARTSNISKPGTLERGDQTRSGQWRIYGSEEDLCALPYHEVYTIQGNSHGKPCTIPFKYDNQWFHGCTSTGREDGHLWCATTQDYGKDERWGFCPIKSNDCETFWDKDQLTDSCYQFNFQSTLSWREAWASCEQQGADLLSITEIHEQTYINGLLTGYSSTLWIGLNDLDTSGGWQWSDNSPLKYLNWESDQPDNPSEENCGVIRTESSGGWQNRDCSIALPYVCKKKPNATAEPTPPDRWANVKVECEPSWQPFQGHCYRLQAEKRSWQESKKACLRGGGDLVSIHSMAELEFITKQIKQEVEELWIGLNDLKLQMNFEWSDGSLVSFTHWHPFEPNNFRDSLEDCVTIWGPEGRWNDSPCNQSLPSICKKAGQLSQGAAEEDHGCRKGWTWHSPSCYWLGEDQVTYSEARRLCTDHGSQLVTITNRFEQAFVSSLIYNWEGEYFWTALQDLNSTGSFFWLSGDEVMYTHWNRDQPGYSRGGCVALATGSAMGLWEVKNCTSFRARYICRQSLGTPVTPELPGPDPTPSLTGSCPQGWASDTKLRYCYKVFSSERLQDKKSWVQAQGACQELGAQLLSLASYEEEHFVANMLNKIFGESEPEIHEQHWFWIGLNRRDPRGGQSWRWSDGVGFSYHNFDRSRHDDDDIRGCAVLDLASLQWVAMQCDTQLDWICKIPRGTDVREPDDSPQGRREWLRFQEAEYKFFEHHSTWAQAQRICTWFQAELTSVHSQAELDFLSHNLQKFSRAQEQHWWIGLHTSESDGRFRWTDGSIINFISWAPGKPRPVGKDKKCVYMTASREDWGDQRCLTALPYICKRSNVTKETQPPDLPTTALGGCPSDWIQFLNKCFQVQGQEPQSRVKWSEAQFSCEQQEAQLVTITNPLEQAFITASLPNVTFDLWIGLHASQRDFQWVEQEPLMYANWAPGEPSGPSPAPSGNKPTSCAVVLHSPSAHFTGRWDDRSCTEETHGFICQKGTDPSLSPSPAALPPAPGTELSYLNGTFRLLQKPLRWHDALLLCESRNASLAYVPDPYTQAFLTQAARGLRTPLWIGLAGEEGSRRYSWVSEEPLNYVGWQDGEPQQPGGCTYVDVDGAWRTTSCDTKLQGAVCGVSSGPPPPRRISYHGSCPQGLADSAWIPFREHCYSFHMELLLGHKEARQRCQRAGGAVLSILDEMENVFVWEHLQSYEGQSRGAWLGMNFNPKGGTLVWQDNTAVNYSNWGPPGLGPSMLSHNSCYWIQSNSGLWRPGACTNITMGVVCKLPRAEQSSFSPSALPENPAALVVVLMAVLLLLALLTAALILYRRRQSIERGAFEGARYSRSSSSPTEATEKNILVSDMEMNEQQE
UniProt Q8NBR6: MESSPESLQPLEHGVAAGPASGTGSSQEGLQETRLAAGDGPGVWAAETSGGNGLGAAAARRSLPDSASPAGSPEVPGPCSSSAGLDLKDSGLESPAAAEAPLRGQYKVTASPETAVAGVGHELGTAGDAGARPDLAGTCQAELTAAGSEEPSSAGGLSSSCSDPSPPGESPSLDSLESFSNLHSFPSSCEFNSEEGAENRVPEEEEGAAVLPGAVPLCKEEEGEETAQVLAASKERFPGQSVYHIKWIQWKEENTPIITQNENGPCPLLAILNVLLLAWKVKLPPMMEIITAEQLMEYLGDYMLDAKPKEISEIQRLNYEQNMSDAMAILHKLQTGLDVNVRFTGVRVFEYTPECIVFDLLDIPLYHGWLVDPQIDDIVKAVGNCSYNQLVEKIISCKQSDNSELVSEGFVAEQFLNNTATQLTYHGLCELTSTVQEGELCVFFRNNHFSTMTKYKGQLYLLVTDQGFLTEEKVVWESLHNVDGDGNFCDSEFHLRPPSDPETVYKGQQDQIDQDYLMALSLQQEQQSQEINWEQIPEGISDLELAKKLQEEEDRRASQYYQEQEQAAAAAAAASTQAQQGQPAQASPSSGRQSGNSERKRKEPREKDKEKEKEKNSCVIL
UniProt Q8NHP6: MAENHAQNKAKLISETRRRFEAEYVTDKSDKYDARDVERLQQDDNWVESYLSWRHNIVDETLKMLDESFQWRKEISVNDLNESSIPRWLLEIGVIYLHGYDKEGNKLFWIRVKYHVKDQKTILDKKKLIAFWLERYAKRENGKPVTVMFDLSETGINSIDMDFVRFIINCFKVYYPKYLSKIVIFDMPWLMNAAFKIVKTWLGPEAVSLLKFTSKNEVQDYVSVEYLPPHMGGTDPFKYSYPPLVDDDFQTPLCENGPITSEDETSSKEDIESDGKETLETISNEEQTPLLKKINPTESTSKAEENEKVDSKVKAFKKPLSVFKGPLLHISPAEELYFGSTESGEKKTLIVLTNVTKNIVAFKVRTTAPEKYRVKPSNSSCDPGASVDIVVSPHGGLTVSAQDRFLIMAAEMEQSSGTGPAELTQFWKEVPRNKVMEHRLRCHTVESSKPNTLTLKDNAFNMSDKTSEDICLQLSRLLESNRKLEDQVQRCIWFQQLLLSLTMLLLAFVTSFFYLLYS
UniProt P51948: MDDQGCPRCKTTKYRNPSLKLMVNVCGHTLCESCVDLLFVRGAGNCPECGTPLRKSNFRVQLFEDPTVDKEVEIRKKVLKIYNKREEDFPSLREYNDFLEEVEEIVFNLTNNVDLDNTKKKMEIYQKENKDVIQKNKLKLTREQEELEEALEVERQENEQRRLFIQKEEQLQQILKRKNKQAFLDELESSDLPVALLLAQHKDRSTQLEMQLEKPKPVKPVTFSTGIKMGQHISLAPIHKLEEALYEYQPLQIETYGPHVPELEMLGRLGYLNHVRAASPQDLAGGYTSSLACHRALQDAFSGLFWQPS
UniProt Q9Y6X9: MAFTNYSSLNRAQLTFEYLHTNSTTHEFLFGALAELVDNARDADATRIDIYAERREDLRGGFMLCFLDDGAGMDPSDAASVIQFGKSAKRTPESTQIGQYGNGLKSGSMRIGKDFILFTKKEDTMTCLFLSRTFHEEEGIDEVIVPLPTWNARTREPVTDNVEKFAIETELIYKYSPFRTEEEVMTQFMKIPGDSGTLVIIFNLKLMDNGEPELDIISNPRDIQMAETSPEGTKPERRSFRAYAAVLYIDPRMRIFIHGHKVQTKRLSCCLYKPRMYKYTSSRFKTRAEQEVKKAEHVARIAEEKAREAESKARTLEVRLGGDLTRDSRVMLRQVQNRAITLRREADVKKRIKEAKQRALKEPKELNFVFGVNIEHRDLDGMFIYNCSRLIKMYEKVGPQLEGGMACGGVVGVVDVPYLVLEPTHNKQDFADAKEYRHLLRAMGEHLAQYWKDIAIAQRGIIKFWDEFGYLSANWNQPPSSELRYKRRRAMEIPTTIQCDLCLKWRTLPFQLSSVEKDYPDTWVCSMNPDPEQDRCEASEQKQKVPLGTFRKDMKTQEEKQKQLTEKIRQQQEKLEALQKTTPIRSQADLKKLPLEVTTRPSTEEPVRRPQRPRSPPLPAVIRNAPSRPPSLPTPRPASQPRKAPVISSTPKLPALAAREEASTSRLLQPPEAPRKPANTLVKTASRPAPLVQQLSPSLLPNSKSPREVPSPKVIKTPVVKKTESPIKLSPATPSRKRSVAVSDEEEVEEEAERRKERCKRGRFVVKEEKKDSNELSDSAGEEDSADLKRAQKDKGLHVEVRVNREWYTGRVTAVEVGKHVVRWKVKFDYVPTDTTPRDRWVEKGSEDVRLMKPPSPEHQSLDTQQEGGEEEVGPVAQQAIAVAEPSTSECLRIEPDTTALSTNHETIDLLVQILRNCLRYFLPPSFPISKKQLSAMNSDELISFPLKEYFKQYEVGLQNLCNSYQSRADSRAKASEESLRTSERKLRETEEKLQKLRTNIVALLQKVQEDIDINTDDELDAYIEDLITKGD
UniProt Q96T76: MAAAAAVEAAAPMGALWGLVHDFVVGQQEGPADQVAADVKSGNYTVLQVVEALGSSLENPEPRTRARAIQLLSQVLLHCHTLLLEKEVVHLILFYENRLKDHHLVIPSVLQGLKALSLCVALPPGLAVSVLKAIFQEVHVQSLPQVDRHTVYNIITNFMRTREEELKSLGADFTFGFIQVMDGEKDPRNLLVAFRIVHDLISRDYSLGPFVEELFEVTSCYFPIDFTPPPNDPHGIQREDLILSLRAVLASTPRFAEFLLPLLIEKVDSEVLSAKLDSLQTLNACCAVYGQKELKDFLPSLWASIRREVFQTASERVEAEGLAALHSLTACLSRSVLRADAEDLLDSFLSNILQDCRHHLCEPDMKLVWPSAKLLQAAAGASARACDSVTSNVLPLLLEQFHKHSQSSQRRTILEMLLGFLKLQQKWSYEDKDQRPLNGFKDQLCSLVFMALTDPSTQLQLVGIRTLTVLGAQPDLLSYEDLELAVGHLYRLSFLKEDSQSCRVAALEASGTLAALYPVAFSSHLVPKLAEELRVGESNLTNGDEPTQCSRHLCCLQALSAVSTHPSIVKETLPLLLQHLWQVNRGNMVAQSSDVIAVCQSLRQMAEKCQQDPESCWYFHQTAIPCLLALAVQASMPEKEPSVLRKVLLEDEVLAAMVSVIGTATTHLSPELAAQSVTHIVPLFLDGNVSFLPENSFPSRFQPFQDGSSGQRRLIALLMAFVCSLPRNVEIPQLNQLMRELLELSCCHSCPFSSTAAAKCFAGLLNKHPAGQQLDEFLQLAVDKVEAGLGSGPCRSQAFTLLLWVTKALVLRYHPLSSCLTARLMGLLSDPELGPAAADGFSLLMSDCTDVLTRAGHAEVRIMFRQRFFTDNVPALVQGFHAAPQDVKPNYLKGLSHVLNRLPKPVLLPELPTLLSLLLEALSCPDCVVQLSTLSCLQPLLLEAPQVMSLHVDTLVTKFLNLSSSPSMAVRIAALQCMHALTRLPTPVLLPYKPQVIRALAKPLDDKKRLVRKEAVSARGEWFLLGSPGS
UniProt Q9Y4U1: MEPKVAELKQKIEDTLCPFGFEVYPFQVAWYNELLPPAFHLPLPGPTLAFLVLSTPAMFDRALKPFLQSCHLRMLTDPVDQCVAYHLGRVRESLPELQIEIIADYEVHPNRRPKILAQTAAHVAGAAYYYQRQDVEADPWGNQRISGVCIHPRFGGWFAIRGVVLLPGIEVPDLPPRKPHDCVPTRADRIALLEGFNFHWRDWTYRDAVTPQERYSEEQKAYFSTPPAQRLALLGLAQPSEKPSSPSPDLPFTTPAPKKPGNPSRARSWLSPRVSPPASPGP

Compound: Cc1cc(ccc1-c1ccccc1)C(=O)N1CCCN(CC1)C(=O)CCl [compound 10]
Assay: probe-labelled cysteine peptide fold change vs DMSO (competition) (log2 fold change); higher = less target engagement (more negative = stronger competition)
Details: THP-1, incubation time: 4 h
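Note: competitive profiling in live THP-1 cells: cysteine peptides tagged with an iodoacetamide desthiobiotin (IA-DTB) probe, intensity after compound treatment relative to DMSO-treated cells.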

Target	probe-labelled cysteine peptide fold change (10 µM)	probe-labelled cysteine peptide fold change (50 µM)
MKS1_Q9NXB0_226_KYEHVLCTLK (UniProt Q9NXB0)	-0.112	0.305
MON1B_Q7L1V2_297_NVLAECR (UniProt Q7L1V2)	-0.0901	-0.142
MIEF1_Q9NQG6_111_SLQTLPTDSSTFDTDTFCPPRPK (UniProt Q9NQG6)	-0.267	-0.0189
MRC2_Q9UBG0_532_KGWTWHSPSCYWLGEDQVTYSEAR (UniProt Q9UBG0)	-0.264	-0.311
MINDY2_Q8NBR6_79_SLPDSASPAGSPEVPGPCSSSAGLDLK (UniProt Q8NBR6)	-0.334	-0.1
MOSPD2_Q8NHP6_442_CHTVESSKPNTLTLK (UniProt Q8NHP6)	-0.0978	-0.149
MMAA_Q8IVH4_184_LSVLAVDPSSCTSGGSLLGDK (UniProt Q8IVH4)	-0.0792	0.0935
MNAT1_P51948_293_AASPQDLAGGYTSSLACHR (UniProt P51948)	-0.136	-0.61
MORC2_Q9Y6X9_387_DLDGMFIYNCSR (UniProt Q9Y6X9)	0.0728	0.167
MRPL21_Q7Z2W9_203_INSIEIAPCLL (UniProt Q7Z2W9)	0.277	-0.0731
MMS19_Q96T76_977_IAALQCMHALTR (UniProt Q96T76)	0.124	-0.0295
MINK1_Q8N4C8_269_KFIDFIDTCLIK (UniProt Q8N4C8)	-0.0555	-0.0905
MPRIP_Q6WCQ1_831_CLENAHLAQALEAER (UniProt Q6WCQ1)	-0.00756	0.046
MINPP1_Q9UNW1_337_SSCTLFQDIFQHLDK (UniProt Q9UNW1)	-0.000835	0.123
MRPS18A_Q9NVS2_108_ITGLCQEEHR (UniProt Q9NVS2)	-0.187	-0.0161
MMACHC_Q9Y4U1_149_ISGVCIHPR (UniProt Q9Y4U1)	-0.0406	0.0687
MIER1_Q8N108_263_CNFDTEEALRR (UniProt Q8N108)	0.0472	0.316
MKLN1_Q9UL63_460_IGHCMLFHSK (UniProt Q9UL63)	-0.16	0.113
MICAL1_Q8TDZ2_87_CLVVGAGPCGLR (UniProt Q8TDZ2)	0.0835	0.45

Quoted from the listing:
Entry of MMS19_Q96T76_977_IAALQCMHALTR (UniProt Q96T76) under probe-labelled cysteine peptide fold change (10 µM): 0.124
Entry of MKS1_Q9NXB0_226_KYEHVLCTLK (UniProt Q9NXB0) under probe-labelled cysteine peptide fold change (10 µM): -0.112
